The source of these data is article PMC10287566, “Signaling-specific inhibition of the CB1 receptor for cannabis use disorder: phase 1 and phase 2a randomized trials” (Nature Medicine, 2023).

The data set concerns healthy volunteers. The class given is in vivo, human.

As to `COc1ccc(CO[C@H]2CC[C@@]3(C)C(=CC[C@H]4[C@@H]5CC[C@H](C(C)=O)[C@@]5(C)CC[C@@H]43)C2)cc1` [AEF0117, 3β-(4-methoxybenzyloxy)pregn-5-en-20-one], where the note is “healthy volunteers, single administration”, the “plasma endocannabinoid (AEA and 2-AG) levels” value was “did not increase”. In addition, the “plasma pregnenolone levels compared to placebo” value (in vivo) is given as “significantly higher”.
